Some entries share one result that the patent states for a list of compounds. At least one structure is not confirmed: it was looked up by name or label, or the drawing left a doubt.
Test system: human PBMCs
Test: IFN-α induction from peripheral blood mononuclear cells (PBMC), IFN-α ELISA
Type: cell-based
Settings: percentage of the level of IFN-α induction by either 32 or 100 μM isatoribine; 24 hours compound exposure
Method: Peripheral blood mononuclear cells (PBMCs) are prepared by standard methods from human blood and are primarily comprised of monocytes, NK cells, circulating dendritic cells and both T and B cells. Briefly, they are purified by density gradient centrifugation from a buffy coat, which is the component of whole blood that contains leukocytes and platelets. In turn, buffy coats are prepared by centrifuging whole blood and isolating the thin cream colored layer between the upper plasma layer and the lower red blood cell portion of the separated mixture.
Freshly collected donor buffy coats were obtained from the San Diego Blood Bank. […]
The cell (PBMC) pellet was then resuspended in 30-40 ml complete (RPMI 1640) media. […] The cells and media were then collected, centrifuged for 5 minutes at 735×g in a 5415 C microfuge (Eppendorf) at room temperature and the supernatant analyzed by IFN-α ELISA. […]
Accordingly, relative activities of the compounds of the invention are expressed as a percentage of the level of IFN-α induction by either 32 or 100 μM isatoribine.
Human IFN-α ELISA (#KHC4012) was performed as described in Biosource protocol. However, to ensure that readings were within the linear range of detection, PBMC supernatant samples were typically diluted 1:3 (2.5×10^6 cells/ml seeding) or 1:15 (7.5×10^6 cells/ml seeding) and then analyzed together with undiluted supernatant samples. […]

For `CC(=O)O[C@@H]1C[C@@H](CO)O[C@H]1n1c(=O)sc2c(=O)[nH]c(N)nc21` [Compound 160, 5-Amino-3-(2′-O-acetyl-3′-deoxy-β-D-ribofuranosyl)-3H,6H-thiazolo[4,5-d]pyrimidine-2,7-dione], the “IFN-α induction from PBMCs relative to isatoribine” value was 51-100%.
